This note sets out measurements from US7550613B2, “Compounds” (Pronova Biopharma Norge AS, priority 2005, dated 2009).

This data set is described as follows: Effect of DHA derivatives in adipose prone mice during 4 months of dietary interventions (Example 5a). The format is in vivo, male C57BL/6 mice. As to the method: All experiments were performed on male C57BL/6 mice, either a substrain C57BL/N (supplier: Charles River, Germany, n=160, experiments A-C, see below), or a substrain C57BL/6J (supplier: the Jackson laboratory, Bar Harbor, Me., USA, n=32, experiment D). Total numbers of animals used were higher (n=170 and 36, respectively), because of culling. In the latter case, animals were bred for several generations (<20) at the Institute of Physiology. At the beginning of the treatment, animals were 14-week-old and their body weight range was 23.6-27.1 g. One week before the study start, animals were sorted according to their body weight and assigned to subgroups (n=8) of similar mean body weight. This method allowed for culling of about 5-10% of animals showing the lowest and highest body weight, respectively. The animals eliminated from the study at this stage were sacrificed by cervical dislocation. Complete health check of mice was performed by the supplier Charles River and at the start of study serological tests were performed by ANLAB (Prague, Czech Republic). In addition, regular health checks were performed in the animal house in 3-mo-intervals using sentinel mice and serological examinations (ANLAB). In all the tests, the animals were free of specific pathogens.
• (i) Chow diet (ssniff R/M-H from SSNIFF Spezialdieten Gmbh, Soest, Germany; see also http://ssniff.de) with protein, fat and carbohydrate forming 33, 9, and 58 energy %, respectively • (ii) High-fat diet prepared in the laboratory (cHF diet) with protein, fat and carbohydrate forming 15, 59, and 26 energy %, respectively, and well characterized fatty acid composition (with most of the lipids coming from corn oil; see Ruzickova 2004) • (iii) cHF diets in which 0.15, 0.5, and 1.5% of fat (specifically the corn oil constituent) was replaced by various PRB-compounds, namely PRB1, PRB2, PRB5, PRB7, and PRB8, or by DHA. All these compounds were in the form of ethyl esters, provided by Pronova Biocare a.s. in sealed containers. […]

SMILES strings stand for the structures.

As to `CC/C=C\C/C=C\C/C=C\C/C=C\C/C=C\C/C=C\CC(SCC)C(=O)OCC` (stereo not drawn) [PRB-7, α-tioethyl docosahexaenoic acid ethyl ester], the Food intake stood at 2.59 ± 0.02 grams/mouse/day (0.15% concentration), 2.69 ± 0.03 grams/mouse/day (0.5% concentration) and 2.68 ± 0.03 grams/mouse/day (1.5% concentration).
